The assay deals with BDF1 mice, P388 leukemia ip, median survival T/C. Briefly: NCI In Vivo Anticancer Drug Screen. Data for tumor model P388 Leukemia (intraperitoneal) in B6D2F1 (BDF1) mice. As to conditions: T/C endpoint: median survival time, higher T/C = longer survival. In short, it runs like this: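 Compound-treated tumour-bearing mice were compared with vehicle-treated controls. Survival was recorded, and the value is the treated-group measurement divided by the control-group measurement (T/C).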

Setting [1] is: dose: 12.5 mg/kg/injection, schedule: Q04DX003 (ip), vehicle: Klucel (hydroxypropylcellulose) (HPC).
The mark [2] stands for this setting: dose: 25.0 mg/kg/injection, schedule: Q04DX003 (ip), vehicle: Klucel (hydroxypropylcellulose) (HPC).

SMILES strings stand for the structures. The list is a part of this screen's results and no random one: it gathers some chemical classes. Other doses and runs of a compound may be missing. T/C gives the treated animals as a percentage of the vehicle group. For survival time, this PubChem deposit counts one and a half times the control or more as active, and values a quarter to a half above the control carry no call in these data; other NCI protocols may use other cut-offs. Some entries show no survivor count and are marked so; the dose need not have been tolerated. Schedule codes are those of the source, taken here to give the interval after Q, in days (D) or hours (H), and the number of doses after X. Some entries were tested several times; their values stand side by side, smallest first.

In the case of `ClCCN(CCCl)c1ccccc1`, the T/C runs as follows: (dose: 6.25 mg/kg/injection, schedule: Q04DX003 (ip), vehicle: Klucel (hydroxypropylcellulose) (HPC)) 140 % of control [survivor count not shown]; (dose: 12.5 mg/kg/injection, schedule: Q01DX009 (ip), vehicle: saline with Tween-80) 168 % of control [survivor count not shown]; under setting [1], 135 % of control [survivor count not shown]; (dose: 16.0 mg/kg/injection, schedule: Q01DX010 (ip), vehicle: saline) 91 % of control [survivor count not shown]; (dose: 25.0 mg/kg/injection, schedule: Q01DX009 (ip), vehicle: saline with Tween-80) 168 % of control [survivor count not shown]; under setting [2], 140 % of control [survivor count not shown]. In addition, the T/C is 100 % of control [survivor count not shown] (dose: 32.0 mg/kg/injection, schedule: Q01DX010 (ip), vehicle: saline); 210 % of control [survivor count not shown] (dose: 50.0 mg/kg/injection, schedule: Q04DX003 (ip), vehicle: Klucel (hydroxypropylcellulose) (HPC)); 108 % of control [survivor count not shown] (dose: 64.0 mg/kg/injection, schedule: Q01DX010 (ip), vehicle: saline); 180 % of control [survivor count not shown] (dose: 100.0 mg/kg/injection, schedule: Q04DX003 (ip), vehicle: Klucel (hydroxypropylcellulose) (HPC)).
Regarding `COC(=O)CCc1ccc(CN(CCCl)CCCl)cc1`, the T/C by setting is: (dose: 0.44 mg/kg/injection, schedule: Q01DX009 (ip), vehicle: saline) 108 % of control [survivor count not shown]; (dose: 0.44 mg/kg/injection, schedule: Q04DX003 (ip), vehicle: saline) 109 % of control [survivor count not shown]; (dose: 0.66 mg/kg/injection, schedule: Q01DX009 (ip), vehicle: saline) 141 % of control [survivor count not shown]; (dose: 0.66 mg/kg/injection, schedule: Q04DX003 (ip), vehicle: saline) 118 % of control [survivor count not shown]; (dose: 0.75 mg/kg/injection, schedule: Q01DX009 (ip), vehicle: saline) 95 [survivor count not shown] and 104 % of control [survivor count not shown]; (dose: 1.0 mg/kg/injection, schedule: Q01DX009 (ip), vehicle: saline) 158 % of control [survivor count not shown]. In addition, the T/C runs as follows: (dose: 1.0 mg/kg/injection, schedule: Q04DX003 (ip), vehicle: saline) 122 % of control [survivor count not shown]; (dose: 1.46 mg/kg/injection, schedule: Q04DX003 (ip), vehicle: saline) 140 % of control [survivor count not shown]; (dose: 1.5 mg/kg/injection, schedule: Q01DX009 (ip), vehicle: saline) 131 [survivor count not shown], 139 [survivor count not shown], 181 % of control [survivor count not shown]; (dose: 1.5 mg/kg/injection, schedule: Q04DX003 (ip), vehicle: saline) 150 % of control [survivor count not shown]; (dose: 2.2 mg/kg/injection, schedule: Q04DX003 (ip), vehicle: saline) 154 % of control [survivor count not shown]; (dose: 3.0 mg/kg/injection, schedule: Q01DX009 (ip), vehicle: saline) 150 [survivor count not shown] and 200 % of control [survivor count not shown]. Besides, the T/C reads like this: (dose: 3.3 mg/kg/injection, schedule: Q04DX003 (ip), vehicle: saline) 163 % of control [survivor count not shown]; (dose: 5.0 mg/kg/injection, schedule: Q04DX003 (ip), vehicle: saline) 200 % of control [survivor count not shown].
Regarding `O=C(O)CCCCc1ccc(N(CCCl)CCCl)cc1`, the T/C (dose: 1.56 mg/kg/injection, schedule: Q01DX009 (ip), vehicle: Klucel (hydroxypropylcellulose) (HPC)) was 116 % of control [survivor count not shown]; the T/C (dose: 2.0 mg/kg/injection, schedule: Q04DX003 (ip), vehicle: saline with Tween-80) was 105 % of control [survivor count not shown]; the T/C (dose: 3.13 mg/kg/injection, schedule: Q01DX009 (ip), vehicle: Klucel (hydroxypropylcellulose) (HPC)) was 127 % of control [survivor count not shown]; the T/C (dose: 4.0 mg/kg/injection, schedule: Q04DX003 (ip), vehicle: saline with Tween-80) was 110 % of control [survivor count not shown]; the T/C (dose: 6.25 mg/kg/injection, schedule: Q01DX009 (ip), vehicle: Klucel (hydroxypropylcellulose) (HPC)) was 133 % of control [survivor count not shown]; the T/C (dose: 6.25 mg/kg/injection, schedule: Q04DX003 (ip), vehicle: saline with Tween-80) is 104 % of control [survivor count not shown]. The T/C (dose: 8.0 mg/kg/injection, schedule: Q04DX003 (ip), vehicle: saline with Tween-80) was 120 % of control [survivor count not shown]; the T/C (dose: 12.5 mg/kg/injection, schedule: Q01DX009 (ip), vehicle: Klucel (hydroxypropylcellulose) (HPC)) was 159 % of control [survivor count not shown]; the T/C under setting [1] is 113 % of control [survivor count not shown]; the T/C (dose: 12.5 mg/kg/injection, schedule: Q04DX003 (ip), vehicle: saline with Tween-80) was 127 % of control [survivor count not shown]; the T/C (dose: 16.5 mg/kg/injection, schedule: Q04DX003 (ip), vehicle: saline with Tween-80) was 113 % of control [survivor count not shown]; the T/C (dose: 25.0 mg/kg/injection, schedule: Q01DX009 (ip), vehicle: Klucel (hydroxypropylcellulose) (HPC)) is 186 % of control [survivor count not shown]. Moreover, the T/C is 147 % of control [survivor count not shown] under setting [2]; 130 [survivor count not shown] and 145 % of control [survivor count not shown] (dose: 25.0 mg/kg/injection, schedule: Q04DX003 (ip), vehicle: saline with Tween-80); 152 % of control [survivor count not shown] (dose: 37.5 mg/kg/injection, schedule: Q04DX003 (ip), vehicle: saline with Tween-80).
With `Cc1ccc2nc(CN(CCCl)CCCl)[nH]c2c1`, the T/C (dose: 1.78 mg/kg/injection, schedule: Q01DX009 (ip), vehicle: saline) is 131 % of control [survivor count not shown]; the T/C (dose: 2.66 mg/kg/injection, schedule: Q01DX009 (ip), vehicle: saline) was 140 % of control [survivor count not shown]; the T/C (dose: 4.0 mg/kg/injection, schedule: Q01DX009 (ip), vehicle: saline) is 154 % of control [survivor count not shown]; the T/C (dose: 5.3 mg/kg/injection, schedule: Q01DX009 (ip), vehicle: saline) was 179 % of control [survivor count not shown]; the T/C (dose: 6.0 mg/kg/injection, schedule: Q01DX009 (ip), vehicle: saline) was 177 % of control [survivor count not shown]; the T/C (dose: 6.25 mg/kg/injection, schedule: Q01DX001 (ip), vehicle: saline sonified) is 124 % of control [survivor count not shown]. In addition, the T/C is 117 % of control [survivor count not shown] (dose: 6.25 mg/kg/injection, schedule: Q04DX003 (ip), vehicle: saline); 179 % of control [survivor count not shown] (dose: 8.0 mg/kg/injection, schedule: Q01DX009 (ip), vehicle: saline); 145 % of control [survivor count not shown] (dose: 8.33 mg/kg/injection, schedule: Q04DX003 (ip), vehicle: saline); 200 % of control [survivor count not shown] (dose: 12.0 mg/kg/injection, schedule: Q01DX009 (ip), vehicle: saline); 136 % of control [survivor count not shown] (dose: 12.5 mg/kg/injection, schedule: Q01DX001 (ip), vehicle: saline sonified); 142 [survivor count not shown] and 177 % of control [survivor count not shown] (dose: 12.5 mg/kg/injection, schedule: Q04DX003 (ip), vehicle: saline). The T/C by setting is: (dose: 18.7 mg/kg/injection, schedule: Q04DX003 (ip), vehicle: saline) 186 % of control [survivor count not shown]; (dose: 25.0 mg/kg/injection, schedule: Q01DX001 (ip), vehicle: saline sonified) 124 % of control [survivor count not shown]; (dose: 25.0 mg/kg/injection, schedule: Q04DX003 (ip), vehicle: saline) 153 % of control [survivor count not shown].

The values above are taken from PubChem BioAssay AID328 (DTP/NCI, 2004).
